± gives the standard deviation. This is one part of the list. Many entries were measured with a wide error.
Tested on: EfPiwi piRISC loaded with L1MC piRNA (26 nt)
Assay: pre-steady-state target cleavage rate (min^-1); guide: L1MC piRNA 5'p-UAACUAAAUACUAUGCAAGCUGUAGG; MIWI and MILI are mouse PIWI proteins and EfPiwi is from a freshwater sponge; tags in brackets are library labels; higher = faster piRNA-guided slicing of the target
Details: auxiliary factor: 500 nM Ephydatia muelleri Gtsf1
Procedure, shortened: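 Cleave-'n-Seq measured uncleaved targets by sequencing after a transcribed, DNA-blocked target RNA library […] was mixed with 1 nM active affinity-purified piRISC holding one synthetic guide, with or without 500 nM GTSF1 partner protein, at 33 °C in HEPES–potassium acetate buffer for 0–8 or 0–960 min. Counts were normalised to depth and to weakly complementary targets, three trials were pooled, and k3 was capped at 0.0001 min^-1. A burst-and-steady-state fit gave the pre-steady-state cleavage rate.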

Row | Sequence | pre-steady-state target cleavage rate
1 | UCCUGCUACAGCUUGCAUUGUAUUUAGUUA | 0.00662 ± 0.0024
2 | UCCUGCUACAGUUGCAUAGUAUUUAGUUA | 0.0766 ± 0.022
3 | UCCUCCUACUGCUUGCAUAGUAUUAAGUUA | 0.00682 ± 0.0034
4 | UCCUGGAACAGCUUGCUUAGUAUAUAGUUA | 0.0104 ± 0.0048
5 | UCCUCCUACAGGUUGCUUAGUAUUUAGUUA | 0.0231 ± 0.0065
6 | UCCUGGUACAGCUUGCAUAGUAUAUAGUUA | 0.00533 ± 0.0027
7 | UCCUGGUAGAGCUUGCAUAGUAUAUAGUUA | 0.0131 ± 0.0051
8 | UCCUCCUACAGCUUGCAUAGUAUUUAGUUG [g2:g26:cont:t1G] | 0.00723 ± 0.0029
9 | UCCUCCUACAGCUUGCAUAGUAUUUAGCUUA | 0.00683 ± 0.0027
10 | UCCUGCUAUCAGCUUGCAUAGUAUUUAGUUA | 0.0613 ± 0.015
11 | UCCUGGUACAGCUCGCAUAGUAUUUAGUUA | 0.00967 ± 0.0034
12 | UCCUGGAACAGCAUUGCAUAGUAUUUAGUUA | 0.015 ± 0.0044
13 | UCCUCCUACAGCUAGCAUAGUAAUUAGUUA | 0.00535 ± 0.002
14 | UCCUGCUUCAGCUUGCAUAGUAUUUACUUA | 0.00411 ± 0.0037
15 | UCCUGGAUCAGCUUGCAAAGUAUUUACUUA | 0.000995 ± 0.0053
16 | UCCUGGUACAGCUUGGAUAGUAUUUUGUUA | 0.0013 ± 0.0078
17 | UCCUCCUACAGGAUGCAUAGUAUUUAGUUA | 0.0467 ± 0.011
18 | UCCUGGAUGUCGAACGAUAGUAUUAUAGUUA | < 0.0001
19 | UCCUCCUACUGGUUGCAUAGUAUUUAGUUA | 0.1 ± 0.025

Row | Sequence | pre-steady-state target cleavage rate
20 | UCCUCCUUGUGCUUGCAUAGUAUUUAGUUA | 0.0113 ± 0.0034
21 | UCCUGGUACAGCUUGCAAAGUAUUUACAAA | 0.00196 ± 0.0029
22 | UCCUGGAUGUGCUUGCAUAGUUUUUAGUAA | 0.000532 ± 0.0093
23 | UCCUGGAUGUCCCUUGCAUAGUAUUUAGUUA | 0.00608 ± 0.0026
24 | UCCUCCUACAGGAUGCAUAGUAUUUAGUAA | 0.0119 ± 0.0048
25 | UCCUGGAUGUCCUUGCAAAGUAUUUAGUUA | 0.00235 ± 0.0036
26 | UCCUCCUACAGCUUGCAUGUAUUUAGUUA | 0.00924 ± 0.0046
27 | UCCUGGAUGUCGAUGCAUAGAAAUUAGUUA | 0.000251 ± 0.012
28 | UCCUCCUACAGUUGCAUAGUAUUUAGUUA | 0.0777 ± 0.021
29 | UCCUGGAUGUCGAACGUAUGUAUUUAGAUUA | < 0.0001
30 | UCCUCCUACAGCUAGCAUAGUAUAUAGUUA | 0.00495 ± 0.0026
31 | UCCUGGUACUGCUUGCAAAGUAUUUAGUUA | 0.0752 ± 0.027
32 | UCCUGCUCAGCUUGCAUAGUAUUUAGUUA | 0.065 ± 0.015
33 | UCCUCCUACAAGCUUGCAUAGUAUUUAGUUA | 0.0104 ± 0.0039
34 | UCCUCCUUCAGCUUGCAUAGUUUUUAGUUA | 0.00713 ± 0.0023
35 | UCCUCCUACAGCUUGCAUAGUAUUUUCUUA | 0.00493 ± 0.003
36 | UCCUCCUACAGCUUGCAAAGUAUAUAGUUA | 0.008 ± 0.0043
37 | UCCUGGAUGUCGAACGUAAGUAUUUGGUUA | < 0.0001

Same assay, conditions: auxiliary factor: none (no Gtsf1)

Row | Sequence | pre-steady-state target cleavage rate
38 | UCCUGGUAGAGGUUGCAUAGUAUUUAGUUA | 0.00158 ± 0.0093
39 | UCCUGGUACAGCUUGCAUAGUAUAUAGUUA | 0.000348 ± 0.03
40 | UCCUGGUAGAGCUUGCAUAGUAUAUAGUUA | 0.00192 ± 0.0065
41 | UCCUGGUACAGCUUGCAUAGUAUUUACAAA | 0.000965 ± 0.0091
42 | UCCUGCUACACCUUGGAUAGUAUUUAGUUA | 0.000612 ± 0.014

Reference: the supplement of paper PMC10338343
